Paper PMC7033311, “The Eaf3 chromodomain acts as a pH sensor for gene expression by altering its binding affinity for histone methylated-lysine residues” (Bioscience Reports, 2020)
Results are given in words; binding and its absence hold for the method and conditions named.

Sequences of proteins named here, by UniProt entry; tags and fusion partners are left off. A change or cut given only in a name is not applied to a line headed by its entry. A line that says so, or that is headed by a name, gives the form on record, which may keep a tag or linker. Residues count along the entry.
Eaf3 chromodomain (residues 1-120) Y81A (Q12432, form named): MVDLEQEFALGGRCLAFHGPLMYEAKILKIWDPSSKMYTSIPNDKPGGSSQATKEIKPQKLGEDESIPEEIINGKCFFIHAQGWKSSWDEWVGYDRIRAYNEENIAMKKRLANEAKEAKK
Eaf3 chromodomain (residues 1-120) W84A (Q12432, form named): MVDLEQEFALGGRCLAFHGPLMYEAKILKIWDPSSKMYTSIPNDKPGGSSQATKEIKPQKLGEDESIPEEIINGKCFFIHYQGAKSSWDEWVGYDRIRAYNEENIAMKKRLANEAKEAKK
Eaf3 chromodomain (residues 1-120) W88A (Q12432, form named): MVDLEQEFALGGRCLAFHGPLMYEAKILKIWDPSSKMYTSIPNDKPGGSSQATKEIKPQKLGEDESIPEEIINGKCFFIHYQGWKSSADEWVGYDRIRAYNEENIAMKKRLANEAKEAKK
Eaf3 chromodomain (residues 1-120) W84Y (Q12432, form named): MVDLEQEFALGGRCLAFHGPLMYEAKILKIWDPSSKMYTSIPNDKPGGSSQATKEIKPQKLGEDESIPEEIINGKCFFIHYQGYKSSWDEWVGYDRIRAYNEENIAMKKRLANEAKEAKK
Eaf3 chromodomain (residues 1-120) Q82A (Q12432, form named): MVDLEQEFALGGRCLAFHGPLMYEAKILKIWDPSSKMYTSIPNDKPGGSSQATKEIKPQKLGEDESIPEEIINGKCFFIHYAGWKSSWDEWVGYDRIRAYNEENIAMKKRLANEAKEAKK

Assays:
Test in all cases: SEC; size exclusion chromatograms of wild-type and mutant Eaf3 CD (Superdex75 in the purification); peaks marked D: dimer, M: monomer; both purified
[1] = biological target: Eaf3 chromodomain (residues 1-120) Y81A (Saccharomyces cerevisiae) (UniProt Q12432)
[2] = biological target: Eaf3 chromodomain (residues 1-120) W84A (Saccharomyces cerevisiae) (UniProt Q12432)
[3] = biological target: Eaf3 chromodomain (residues 1-120) W88A (Saccharomyces cerevisiae) (UniProt Q12432)
[4] = biological target: Eaf3 chromodomain (residues 1-120) W84Y (Saccharomyces cerevisiae) (UniProt Q12432)
[5] = biological target: Eaf3 chromodomain (residues 1-120) Q82A (Saccharomyces cerevisiae) (UniProt Q12432)

“Eaf3 chromodomain (residues 1-120) Y81A (from UniProt Q12432 1-120) (domain or fragment)” was tested, and the binding [1] was “no binding”.
In the case of “Eaf3 chromodomain (residues 1-120) W84A (from UniProt Q12432 1-120) (domain or fragment)”, the binding [2] is reported as “no binding”.
For “Eaf3 chromodomain (residues 1-120) W88A (from UniProt Q12432 1-120) (domain or fragment)”, the binding [3] was “no binding”.
In the case of “Eaf3 chromodomain (residues 1-120) W84Y (from UniProt Q12432 1-120) (domain or fragment)”, the binding [4] is reported as “no binding”.
For “Eaf3 chromodomain (residues 1-120) Q82A (from UniProt Q12432 1-120) (domain or fragment)”, the binding [5] was “no binding”.
